Results reported in publication PMC5520684.

Molecular target: T1, HA-tagged MFHAS1 (malignant fibrous histiocytoma amplified sequence 1) (UniProt Q9Y4C4)
T1 sequence: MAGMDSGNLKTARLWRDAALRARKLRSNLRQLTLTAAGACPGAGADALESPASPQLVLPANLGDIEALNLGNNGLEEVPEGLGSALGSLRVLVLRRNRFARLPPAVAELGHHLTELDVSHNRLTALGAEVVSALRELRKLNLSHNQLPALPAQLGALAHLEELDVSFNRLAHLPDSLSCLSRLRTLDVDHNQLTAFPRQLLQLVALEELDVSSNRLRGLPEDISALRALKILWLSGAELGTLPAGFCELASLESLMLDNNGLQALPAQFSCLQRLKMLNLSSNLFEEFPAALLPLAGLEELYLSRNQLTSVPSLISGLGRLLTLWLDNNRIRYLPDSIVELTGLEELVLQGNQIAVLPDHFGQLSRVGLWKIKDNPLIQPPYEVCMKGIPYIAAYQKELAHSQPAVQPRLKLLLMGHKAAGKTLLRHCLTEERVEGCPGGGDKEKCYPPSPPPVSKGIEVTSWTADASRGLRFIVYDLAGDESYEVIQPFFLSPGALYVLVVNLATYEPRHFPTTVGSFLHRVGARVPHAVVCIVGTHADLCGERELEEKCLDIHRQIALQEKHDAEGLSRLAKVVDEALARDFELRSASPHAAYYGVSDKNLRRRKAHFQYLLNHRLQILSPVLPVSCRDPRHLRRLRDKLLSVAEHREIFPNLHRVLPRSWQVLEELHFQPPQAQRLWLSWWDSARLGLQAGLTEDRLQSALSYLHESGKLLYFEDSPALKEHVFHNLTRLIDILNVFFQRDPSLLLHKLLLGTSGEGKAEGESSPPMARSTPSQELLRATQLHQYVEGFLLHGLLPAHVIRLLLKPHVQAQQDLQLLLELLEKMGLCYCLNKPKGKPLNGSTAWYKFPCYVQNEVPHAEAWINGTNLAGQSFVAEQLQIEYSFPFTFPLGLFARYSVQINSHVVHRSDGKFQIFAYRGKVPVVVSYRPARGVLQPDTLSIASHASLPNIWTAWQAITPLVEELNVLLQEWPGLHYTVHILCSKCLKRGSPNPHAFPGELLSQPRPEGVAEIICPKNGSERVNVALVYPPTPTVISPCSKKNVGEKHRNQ
Assay: affinity purification with mass spectrometry; HEK293-MFHAS1 lysate precipitated with anti-HA antibody or normal mouse IgG and protein G-Agarose; SDS-PAGE, Coomassie staining, bands not seen in the control excised

binding: binds
B1: praja ring finger 2 (praja2), endogenous (protein, UniProt O43164 1-708)
chain: MSQYTEKEPAAMDQESGKAVWPKPAGGYQTITGRRYGRRHAYVSFKPCMTRHERSLGRAGDDYEVLELDDVPKENSSGSSPLDQVDSSLPSEPIFEKSETEIPTCGSALNQTTESSQSFVAVHHSEEGRDTLGSSTNLHNHSEGEYIPGACSASSVQNGIALVHTDSYDPDGKHGEDNDHLQLSAEVVEGSRYQESLGNTVFELENREAEAYTGLSPPVPSFNCEVRDEFEELDSVPLVKSSAGDTEFVHQNSQEIQRSSQDEMVSTKQQNNTSQERQTEHSPEDAACGPGHICSEQNTNDREKNHGSSPEQVVRPKVRKLISSSQVDQETGFNRHEAKQRSVQRWREALEVEESGSDDLLIKCEEYDGEHDCMFLDPPYSRVITQRETENNQMTSESGATAGRQEVDNTFWNGCGDYYQLYDKDEDSSECSDGEWSASLPHRFSGTEKDQSSSDESWETLPGKDENEPELQSDSSGPEEENQELSLQEGEQTSLEEGEIPWLQYNEVNESSSDEGNEPANEFAQPAFMLDGNNNLEDDSSVSEDLDVDWSLFDGFADGLGVAEAISYVDPQFLTYMALEERLAQAMETALAHLESLAVDVEVANPPASKESIDGLPETLVLEDHTAIGQEQCCPICCSEYIKDDIATELPCHHFFHKPCVSIWLQKSGTCPVCRRHFPPAVIEASAAPSSEPDPDAPPSNDSIAEAP

No constants are given. Whether binding was seen depends on the method and setting. In cells and extracts the contact can be indirect. These calls come from enrichment with a bait or labelling near it, and not all partners need be listed. Where a sequence is shown, tags or fusion partners need not be part of it.
